Experimental data published in paper PMC10286459, “The development of an anti-cancer peptide M1-21 targeting transcription factor FOXM1” (Cell & Bioscience, 2023).

Tested on: recombinant FOXM1 protein (EMSA)
Experiment: EMSA
Conditions: 20 mM Tris-Cl, 50 mM KCl, 0.5 mM EDTA, 0.2 mM DTT, 10% glycerol, pH 7.6, 30 min on ice, 4% native PAGE in 0.5x TBE, label: FAM on forward strand (printed as FAM-TTTG..., 5')

“TTTGTTTATTTGTTTGTTTATTTG (double strand) [FAM dsDNA FOXM1 probe]”: binds (2 uM protein, 50 nM probe, specificity shown with 100x unlabeled probe (5 uM)); binds (plus M1-21 peptide 0.5, 1 and 2 uM (does not disturb DNA binding)).

Construct, isoform or probe ends are uncertain for at least one entry.
